In article PMC12396398:
No constants are given. Whether binding was seen depends on the method and setting. Binding seen in cells or lysates may run through a third protein. Some binding calls cover weakened binding; strength is not graded here.

By UniProt entry, the sequences of proteins in these tests, tags left out.
UniProt P40763: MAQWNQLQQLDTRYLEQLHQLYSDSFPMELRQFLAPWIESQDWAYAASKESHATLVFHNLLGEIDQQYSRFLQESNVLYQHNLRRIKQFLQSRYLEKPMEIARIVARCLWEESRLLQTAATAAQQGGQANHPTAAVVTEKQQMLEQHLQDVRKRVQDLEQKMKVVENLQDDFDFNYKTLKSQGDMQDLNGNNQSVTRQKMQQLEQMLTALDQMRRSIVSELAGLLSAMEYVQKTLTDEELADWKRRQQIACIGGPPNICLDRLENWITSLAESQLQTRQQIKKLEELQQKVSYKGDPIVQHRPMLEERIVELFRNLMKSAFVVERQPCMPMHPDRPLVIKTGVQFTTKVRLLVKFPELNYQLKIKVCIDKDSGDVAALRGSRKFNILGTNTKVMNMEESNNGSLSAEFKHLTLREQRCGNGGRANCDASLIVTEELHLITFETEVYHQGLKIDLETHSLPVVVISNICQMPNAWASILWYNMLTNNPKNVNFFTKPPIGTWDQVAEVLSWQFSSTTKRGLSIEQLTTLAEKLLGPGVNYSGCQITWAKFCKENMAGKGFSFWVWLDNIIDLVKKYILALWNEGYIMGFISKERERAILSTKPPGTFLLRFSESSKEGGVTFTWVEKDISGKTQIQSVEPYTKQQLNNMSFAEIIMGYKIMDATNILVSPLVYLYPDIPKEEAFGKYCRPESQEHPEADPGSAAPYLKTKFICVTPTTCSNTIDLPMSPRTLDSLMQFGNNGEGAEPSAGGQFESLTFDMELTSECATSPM

How the values were obtained:
Jak2 545-848 aa fragment = molecular target: T1, Jak2 545-848 aa fragment (UniProt O60674); experiment: co-IP; Jak2 segments made according to the domains of Jak2, co-IP with Prkci; cells and tags not told
T1 sequence: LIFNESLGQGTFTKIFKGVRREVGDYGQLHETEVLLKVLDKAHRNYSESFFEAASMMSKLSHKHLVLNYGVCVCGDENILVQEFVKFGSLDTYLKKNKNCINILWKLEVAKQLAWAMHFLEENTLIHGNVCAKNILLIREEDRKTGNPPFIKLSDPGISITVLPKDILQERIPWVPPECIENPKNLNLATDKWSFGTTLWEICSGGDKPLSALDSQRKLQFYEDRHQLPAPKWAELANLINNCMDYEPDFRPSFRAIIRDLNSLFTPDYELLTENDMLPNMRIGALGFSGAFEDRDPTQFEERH

[1] = molecular target: Jak2 (human (endogenous in HT29 and RKO)) (UniProt O60674); experiment: co-IP; lysates of HT29 and RKO cells in NP-40 lysis buffer, pre-cleared with protein A/G beads, primary antibody then fresh beads, Western blot; which protein was precipitated is not told
[2] = molecular target: Stat3 (human (endogenous in HT29 and RKO)) (UniProt P40763); experiment: as above

binding (Jak2 545-848 aa fragment): binds
binding [1]: binds
binding [2]: no binding
B1: Protein kinase C iota (Prkci) (enzyme, UniProt P41743 1-596)
chain: MPTQRDSSTMSHTVAGGGSGDHSHQVRVKAYYRGDIMITHFEPSISFEGLCNEVRDMCSFDNEQLFTMKWIDEEGDPCTVSSQLELEEAFRLYELNKDSELLIHVFPCVPERPGMPCPGEDKSIYRRGARRWRKLYCANGHTFQAKRFNRRAHCAICTDRIWGLGRQGYKCINCKLLVHKKCHKLVTIECGRHSLPQEPVMPMDQSSMHSDHAQTVIPYNPSSHESLDQVGEEKEAMNTRESGKASSSLGLQDFDLLRVIGRGSYAKVLLVRLKKTDRIYAMKVVKKELVNDDEDIDWVQTEKHVFEQASNHPFLVGLHSCFQTESRLFFVIEYVNGGDLMFHMQRQRKLPEEHARFYSAEISLALNYLHERGIIYRDLKLDNVLLDSEGHIKLTDYGMCKEGLRPGDTTSTFCGTPNYIAPEILRGEDYGFSVDWWALGVLMFEMMAGRSPFDIVGSSDNPDQNTEDYLFQVILEKQIRIPRSLSVKAASVLKSFLNKDPKERLGCHPQTGFADIQGHPFFRNVDWDMMEQKQVVPPFKPNISGEFGLDNFDSQFTNEPVQLTPDDDDIVRKIDQSEFEGFEYINPLLMSAEECV
